Results reported in patent publication US7910622B2, “Modulation of bacterial quorum sensing with synthetic ligands” (Wisconsin Alumni Research Foundation, priority 2007, dated 2011).

By UniProt entry, the sequences of proteins in these tests, tags left out.
UniProt P35327, whole entry: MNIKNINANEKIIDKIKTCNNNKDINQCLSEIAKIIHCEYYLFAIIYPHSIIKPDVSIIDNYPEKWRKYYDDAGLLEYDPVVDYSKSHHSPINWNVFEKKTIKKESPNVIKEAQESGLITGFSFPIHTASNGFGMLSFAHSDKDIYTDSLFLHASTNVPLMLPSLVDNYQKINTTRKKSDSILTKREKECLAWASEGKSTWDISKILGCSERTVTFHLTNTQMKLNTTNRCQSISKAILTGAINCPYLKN

Experiments:
[1] = target: T1, LuxR (Aliivibrio fischeri, UniProt P35327); settings: 5 μM synthetic ligand against 5 μM OHHL; V. fischeri ES114 (Δ-luxI); normalized to OHHL
[2] = target: T1, LuxR; settings: 200 μM ligand; V. fischeri ES114 (Δ-luxI); normalized to OHHL

`O=C(CCc1ccc(Br)cc1)N[C@H]1CCOC1=O` was tested, and the “V. fischeri-LuxR Inhibition [%]” value [1] was 80% and the “V. fischeri-LuxR Activation [%]” value [2] was 2%.

Structures were worked out from names or drawings and are uncertain.
